For this assay, the system named is L1210 leukemia ip in BDF1 mice, survival T/C. Briefly: NCI In Vivo Anticancer Drug Screen. Data for tumor model L1210 Leukemia (intraperitoneal) in B6D2F1 (BDF1) mice. The following applies: higher T/C = longer survival.
The mark [1] stands for this setting: T/C endpoint: mean survival time, dose: 160.0 mg/kg/injection, schedule: Q01DX009 (ip), vehicle: saline.
[2] abbreviates: T/C endpoint: mean survival time, dose: 320.0 mg/kg/injection, schedule: Q01DX009 (ip), vehicle: saline.

Our source for the survivor count and T/C values is PubChem BioAssay AID248 (DTP/NCI, 2004).

The list is a part of this screen's results and no random one: it gathers tests that were run many times, whatever their T/C, doses with no T/C, and many T/C values between a quarter and a half above the control. Other doses and runs of a compound stand elsewhere. T/C gives the treated animals as a percentage of the vehicle group. Some entries give survivors of the animals treated and no T/C: the source files T/C as zero there, which appears to mark a toxic dose or a test without result, not a measured value. Some doses without a T/C left all or most animals alive at the check, yet need not have been tolerated: the source hardly ever lists a survival T/C far under the control, and the zero likely stands for such cases as well. Counts of survivors are from the toxicity check (mostly the fifth day) where no day follows; animals may have died later. Schedule codes are those of the source, taken here to give the interval after Q, in days (D) or hours (H), and the number of doses after X. Some entries were tested several times; their values stand side by side, smallest first. Where survival is the endpoint, this PubChem deposit counts one and a half times the control or more as active, and values a quarter to a half above the control carry no call in these data; other NCI protocols may use other cut-offs. Some T/C values carry the count of animals alive at the toxicity check (mostly the fifth day); without a count, all were alive then.

`C/C(=N/N=C(N)N)c1ccc(NC(=O)Nc2ccc(/C(C)=N/N=C(N)N)cc2)cc1`: the survivor count runs as follows: (T/C endpoint: mean survival time, dose: 8.0 mg/kg/injection, schedule: Q03HX008 (ip), vehicle: other) 5 of 10; (T/C endpoint: mean survival time, dose: 16.0 mg/kg/injection, schedule: Q01DX005 (iv), vehicle: other) 0 of 10; (T/C endpoint: mean survival time, dose: 16.0 mg/kg/injection, schedule: Q03HX008 (ip), vehicle: other) 6 of 10; (T/C endpoint: mean survival time, dose: 16.0 mg/kg/injection, schedule: Q03HX016 (ip), vehicle: other) 4 of 10; (T/C endpoint: mean survival time, dose: 32.0 mg/kg/injection, schedule: Q01DX005 (iv), vehicle: other) 0 of 10; (T/C endpoint: mean survival time, dose: 32.0 mg/kg/injection, schedule: Q03HX008 (ip), vehicle: other) 0 of 10. In addition, the survivor count (T/C endpoint: mean survival time, dose: 32.0 mg/kg/injection, schedule: Q03HX016 (ip), vehicle: other) was 0 of 10; the survivor count (T/C endpoint: mean survival time, dose: 64.0 mg/kg/injection, schedule: Q01DX001 (iv), vehicle: other) is given as 0 of 10; the survivor count (T/C endpoint: mean survival time, dose: 64.0 mg/kg/injection, schedule: Q01DX005 (ip), vehicle: other) is recorded as 0 of 10; the survivor count (T/C endpoint: mean survival time, dose: 64.0 mg/kg/injection, schedule: Q01DX005 (iv), vehicle: other) is listed as 0 of 10; the survivor count (T/C endpoint: mean survival time, dose: 64.0 mg/kg/injection, schedule: Q01DX009 (ip), vehicle: other) was 1 of 10; the survivor count (T/C endpoint: mean survival time, dose: 64.0 mg/kg/injection, schedule: Q03HX008 (ip), vehicle: other) is listed as 0 of 10. Further, the survivor count (T/C endpoint: mean survival time, dose: 64.0 mg/kg/injection, schedule: Q03HX016 (ip), vehicle: other) is 0 of 10; the survivor count (T/C endpoint: mean survival time, dose: 128.0 mg/kg/injection, schedule: Q01DX001 (ip), vehicle: other) is 1 of 10; the survivor count (T/C endpoint: mean survival time, dose: 128.0 mg/kg/injection, schedule: Q01DX001 (iv), vehicle: other) was 0 of 10; the survivor count (T/C endpoint: mean survival time, dose: 128.0 mg/kg/injection, schedule: Q01DX005 (ip), vehicle: other) was 0 of 10; the survivor count (T/C endpoint: mean survival time, dose: 128.0 mg/kg/injection, schedule: Q01DX005 (iv), vehicle: other) was 0 of 10; the survivor count (T/C endpoint: mean survival time, dose: 128.0 mg/kg/injection, schedule: Q01DX009 (ip), vehicle: other) is listed as 0 of 10. The survivor count is, setting by setting: (T/C endpoint: mean survival time, dose: 128.0 mg/kg/injection, schedule: Q03HX008 (ip), vehicle: other) 0 of 10; (T/C endpoint: mean survival time, dose: 128.0 mg/kg/injection, schedule: Q03HX016 (ip), vehicle: other) 0 of 10; (T/C endpoint: mean survival time, dose: 128.0 mg/kg/injection, schedule: Q04DX003 (ip), vehicle: other) 0 of 10; (T/C endpoint: mean survival time, dose: 128.0 mg/kg/injection, schedule: Q08DX002 (ip), vehicle: other) 1 of 10; (T/C endpoint: mean survival time, dose: 147.0 mg/kg/injection, schedule: Q01DX009 (ip), vehicle: water) 5 of 10; under setting [1], 0 of 6 and 2 of 6. Besides, the survivor count (T/C endpoint: mean survival time, dose: 245.0 mg/kg/injection, schedule: Q01DX009 (ip), vehicle: water) is recorded as 6 of 10; the survivor count (T/C endpoint: mean survival time, dose: 256.0 mg/kg/injection, schedule: Q01DX001 (ip), vehicle: other) is listed as 0 of 10; the survivor count (T/C endpoint: mean survival time, dose: 256.0 mg/kg/injection, schedule: Q01DX001 (iv), vehicle: other) is listed as 0 of 10; the survivor count (T/C endpoint: mean survival time, dose: 256.0 mg/kg/injection, schedule: Q01DX005 (ip), vehicle: other) is 0 of 10; the survivor count (T/C endpoint: mean survival time, dose: 256.0 mg/kg/injection, schedule: Q01DX005 (iv), vehicle: other) is given as 0 of 10; the survivor count (T/C endpoint: mean survival time, dose: 256.0 mg/kg/injection, schedule: Q01DX009 (ip), vehicle: other) was 0 of 10. In addition, the survivor count is, setting by setting: (T/C endpoint: mean survival time, dose: 256.0 mg/kg/injection, schedule: Q04DX003 (ip), vehicle: other) 0 of 10; (T/C endpoint: mean survival time, dose: 256.0 mg/kg/injection, schedule: Q08DX002 (ip), vehicle: other) 0 of 10; under setting [2], 2 of 6 and 3 of 6; (T/C endpoint: mean survival time, dose: 512.0 mg/kg/injection, schedule: Q01DX001 (ip), vehicle: other) 0 of 10; (T/C endpoint: mean survival time, dose: 512.0 mg/kg/injection, schedule: Q01DX001 (iv), vehicle: other) 0 of 10; (T/C endpoint: mean survival time, dose: 512.0 mg/kg/injection, schedule: Q04DX003 (ip), vehicle: other) 1 of 10. In addition, the survivor count runs as follows: (T/C endpoint: mean survival time, dose: 512.0 mg/kg/injection, schedule: Q08DX002 (ip), vehicle: other) 2 of 10; (T/C endpoint: mean survival time, dose: 1024.0 mg/kg/injection, schedule: Q01DX001 (ip), vehicle: other) 1 of 10; (T/C endpoint: mean survival time, dose: 1024.0 mg/kg/injection, schedule: Q01DX001 (iv), vehicle: other) 0 of 10; (T/C endpoint: mean survival time, dose: 1024.0 mg/kg/injection, schedule: Q04DX003 (ip), vehicle: other) 0 of 10; (T/C endpoint: mean survival time, dose: 1024.0 mg/kg/injection, schedule: Q08DX002 (ip), vehicle: other) 0 of 10; (T/C endpoint: median survival time, dose: 30.0 mg/kg/injection, schedule: Q03HX024 (ip), vehicle: water) 0 of 8. Besides, for the setting “T/C endpoint: median survival time, dose: 45.0 mg/kg/injection, schedule: Q03HX024 (ip), vehicle: water”, the survivor count is 0 of 8. The T/C is 124, 140, 145, 149 % of control (T/C endpoint: mean survival time, dose: 20.0 mg/kg/injection, schedule: Q01DX009 (ip), vehicle: saline); 142, 144, 161, 188 % of control (T/C endpoint: mean survival time, dose: 40.0 mg/kg/injection, schedule: Q01DX009 (ip), vehicle: saline); 178, 181, 217, 280 % of control [5 of 6 alive] (T/C endpoint: mean survival time, dose: 80.0 mg/kg/injection, schedule: Q01DX009 (ip), vehicle: saline); 94 [5 of 6 alive] and 206 % of control [4 of 6 alive] under setting [1]; 191 % of control [4 of 6 alive] under setting [2].

For `O=C1c2ccccc2-c2nc3cncnc3nc21` (tested in a mixture with another compound), the survivor count (T/C endpoint: mean survival time, dose: 400.0 mg/kg/injection, schedule: Q04DX003 (ip), vehicle: saline) was 2 of 6.

Consider `O=C(CCCN1CCC2(CC1)C(=O)NCN2c1ccccc1)c1cccs1`, for which the survivor count was 2 of 6 (T/C endpoint: mean survival time, dose: 25.0 mg/kg/injection, schedule: Q04DX003 (ip), vehicle: saline with Tween-80); 1 of 6 (T/C endpoint: mean survival time, dose: 100.0 mg/kg/injection, schedule: Q04DX003 (ip), vehicle: saline with Tween-80); 0 of 6 (T/C endpoint: mean survival time, dose: 200.0 mg/kg/injection, schedule: Q04DX003 (ip), vehicle: saline with Tween-80); 0 of 6 (T/C endpoint: mean survival time, dose: 400.0 mg/kg/injection, schedule: Q04DX003 (ip), vehicle: saline with Tween-80).

`O=C(CCl)Nc1ccccc1S(=O)(=O)F`: the survivor count by setting is: (T/C endpoint: mean survival time, dose: 75.0 mg/kg/injection, schedule: Q01DX009 (ip), vehicle: carboxymethylcellulose (CMC)) 5 of 6; (T/C endpoint: mean survival time, dose: 300.0 mg/kg/injection, schedule: Q04DX003 (ip), vehicle: carboxymethylcellulose (CMC)) 0 of 6.

Regarding `Cc1ccc(C(C)C)c(O)c1C(=O)O`, the survivor count (T/C endpoint: mean survival time, dose: 400.0 mg/kg/injection, schedule: Q01DX001 (ip), vehicle: Klucel (hydroxypropylcellulose) (HPC)) is 0 of 6.
